Assay results published in patent US12024544B2, “CCN3 and CCN3 peptides and analogs thereof for therapeutic use” (Rosalind Franklin University of Medicine & Science, priority 2010, dated 2024).
Entries after “also recorded” stand apart in the source; their conditions may differ. At least one peptide structure holds a part that was inferred or is arguable (an end, a ring closure or a residue). Where a SMILES comes first, the peptide text is derived from it.

Key:
CCN2 receptor = experiment: adhesion of mesangial cells to CCN2 coated plates; type: cell-based, rat; conditions: peptide screen, FIG. 9
Text: The peptides selected above, and shown in FIG. 5, were synthesized and tested in the three different in vitro assays constructed to model fibrosis, or fibrosis-related pathology in vivo for anti-fibrotic activity. These assays have been used extensively by us and by others, and are highly predictive of related responses in vivo, including those occurring in humans. One in vitro assay, i.e., of cell adhesion in vitro was used. There is a requirement for adhesion in wound healing and fibrosis, with cells responding to the binding of CCN2 to their receptors for other critical activities. Also alteration of cell attachment and receptor binding is implicated in other non-fibrotic diseases, previously named in this application. For this adhesion assay, a well of a culture plate was coated with CCN2 protein and then rat mesangial cells were added for a defined period. […] After a standard period of incubation, the cells are washed to remove non-attached cells. These adherent cells are then removed and counted to determine the percent of the total cells that adhered. The ability of each peptide to block this binding was examined by preincubating cells with the peptide of interest. Controls were used for comparison without CCN2 coating.

CCN2 = experiment: immunochemical staining: CCN2 immunolocalization and cell phenotype after TGF-beta; type: cell-based
collagen type I = experiment: immunochemical staining: collagen I immunolocalization and cell phenotype after TGF-beta; type: cell-based
TIMP-1 = TIMP-1 production by human skin fibroblasts; type: cell-based; conditions: FIG. 30, highest dose used
Text: (§1) To test this we used a cell culture model of skin healing/scarring, which employed the use of primary human skin fibroblasts derived from foreskins collected post circumcision. These have been used extensively in the past to grown in culture and treated with agents that are known to drive wound healing and or scarring. We were also interested in a rare form of skin fibrosis/scarring that can lead to systemic disease and death known as nephrogenic systemic fibrosis (NSF). NSF is a complication of NMR diagnostics in renal impaired patients, where gadolinium (GAD), a heavy metal, is used as a contrast agent, but in some cases appears to deposit in skin. […]
(§2) We examined the role of CCN3 and CCNp in fibroproliferative/fibrotic responses in human dermal fibroblasts exposed to Omniscan, one of the gadolinium-based contrast agents associated with development of nephrogenic systemic fibrosis. […] Cellular proliferation was assessed along with MMP-1 (by ELISA and gelatin zymography), TIMP-1 (by ELISA) and COL1 (by ELISA) in the absence and presence of CCN3 and CCNp. […] In parallel, CCN3 production was assessed in control and Omniscan-treated cells. […]

pro-collagen type 1 = pro-collagen type 1 production by human skin fibroblasts; type: cell-based; conditions: 1-100 nM, FIGS. 31-33
Text: as §1, §2

BTBR Ob/Ob mouse [1] = experiment: BTBR Ob/Ob mouse model of diabetic renal disease; type: in vivo
Experimental: (§3) This was carried out using the BTBR Ob/Ob mouse strain that has a defective leptin receptor that results in increased appetite. As a result it rapidly gains weight over the control strain and becomes hyperglycemic at about one month of age, going on to develop renal disease resembling that in humans. This is regarded by some to be the rodent model best mirroring renal disease in humans as a complication of diabetes. Animals were treated with either rCCN3 (SEQ. ID. NO: 67) or CCNp38 (SEQ. ID. NO: 38) beginning at 9 weeks of age, when early renal disease has been documented. The disease was allowed to develop for 9 weeks, then treatment started. Mice were treated 3 times per week for 8 weeks. At 17 weeks, blood and urine were collected, and animals sacrificed with organ samples collected. The effect of treatment with either CCN3 (2 concentrations, 2 or 20× the circulating amounts) or mimic peptide (CCNp38, 2 concentrations, 20 or 200× the equivalent molar circulating concentration of CCN3) was tested. Assays to determine the effect of CCN3 or peptide on expression of target fibrosis genes and clinical pathology were determined using methods as previously described (Riser, Amer J Pathology 2009) and (McIntosh, L M, et al., Selective CCR2-targeted macrophage depletion ameliorates experimental mesangioproliferative glomerulonephritis, Clinical and Experimental Immunology, 2008, 155, 295-303).
This was carried out using the BT/BR Ob/Ob mouse strain that has a defective leptin receptor that results in increased appetite. As a result mice rapidly gain weight over the control strain and become hyperglycemic at about one month of age going on to develop renal disease resembling that in humans. This is regarded by some to be the best rodent model for mirroring renal disease in humans as a complication of diabetes. […] Animals were treated with either rCCN3 (SEQ. ID. NO: 67) or CCNp38 (SEQ. ID. NO: 38) beginning at 9 weeks of age, when early renal disease has been documented. Mice were treated for 8 weeks, then sacrificed and measured for renal disease and other complications, and the effect drug treatment. Test animals were documented to have developed diabetes by 9 weeks, and were randomized for treatment, thus providing equivalent blood glucose levels in each treated group.

BTBR Ob/Ob mouse [2] = experiment: BTBR Ob/Ob mouse as model of liver disease; type: in vivo; conditions: 8 weeks of treatment
Experimental: as §3
Since a common complication of diabetes is fatty liver, hepatitis, NASH, and in some cases liver fibrosis, we used the BTBR Ob/Ob mouse experiments described above as a model of human liver disease to examine the possibility that CCN3 or more particularly CCNp peptides might provide a treatment to prevent, treat, or reverse the liver disease described above.

BTBR Ob/Ob mouse [3] = experiment: BTBR Ob/Ob mouse as model of cardiac disease; type: in vivo; conditions: 8 weeks of treatment, two doses, FIG. 44

SMILES | inhibition of CCN2-mediated binding (adhesion to CCN2) (CCN2 receptor) | effect on CCN2 immunolocalization, new CCN2 synthesis and phenotype change after TGF-β (CCN2; 50 nM) | effect on CCN2 immunolocalization, new CCN2 synthesis and phenotype change after TGF-β (CCN2; concentration not given) | effect on collagen I immunolocalization and phenotype change after TGF-β (collagen type I; 0.5 nM) | effect on collagen I immunolocalization and phenotype change after TGF-β (collagen type I; higher doses than 0.5 nM) | reduction in PDGF stimulated TIMP-1 production (TIMP-1) | reduction of TGF-beta-stimulated pro-collagen type 1 production (pro-collagen type 1) | concentration of optimal effect on CCN2 immunolocalization (CCN2; TGF-β treated cells) [nM] | effect on collagen I immunolocalization and phenotype change after TGF-β (collagen type I; 5-50 nM) | effect on elevated plasma creatinine (BTBR Ob/Ob mouse [1]; 17 weeks of diabetes, 8 weeks of treatment 3 times per week, FIG. 35) | effect on elevated albumin to creatinine ratio (BTBR Ob/Ob mouse [1]; 17 weeks of diabetes, 8 weeks of treatment, FIG. 36) | effect on mesangial expansion (PAS staining, image analysis) (BTBR Ob/Ob mouse [1]; 17 weeks of diabetes, 8 weeks of treatment, FIG. 37) | effect on increased renal mRNA levels for CCN2 (BTBR Ob/Ob mouse [1]; kidney, 8 weeks of treatment, FIG. 38) | effect on increased renal mRNA levels for Col1A2 (BTBR Ob/Ob mouse [1]; kidney, 8 weeks of treatment, FIG. 39) | effect on increased liver weight (BTBR Ob/Ob mouse [2]; FIG. 41) | effect on increased liver mRNA levels for CCN2 (BTBR Ob/Ob mouse [2]; liver, two doses, FIG. 42) | effect on increased liver mRNA levels for Col1A2 (BTBR Ob/Ob mouse [2]; liver, two doses, FIG. 43) | effect on increased heart mRNA levels for plasminogen activator inhibitor 1 (PAI-1) (BTBR Ob/Ob mouse [3])
CC(C)[C@H](NC(=O)CNC(=O)[C@H](CO)NC(=O)[C@@H](N)Cc1ccccc1)C(=O)N[C@@H](CO)C(=O)N[C@@H](CO)C(=O)N[C@@H](CC(=O)O)C(=O)NCC(=O)N[C@@H](CCCNC(=N)N)C(=O)N[C@@H](CO)C(=O)N[C@@H](CO)C(=O)N[C@H](C(=O)N1CCC[C@H]1C(=O)N[C@@H](Cc1c[nH]cn1)C(=O)O)[C@@H](C)O [CCNp37] (H-FSGVSSDGRSSTPH-OH) | inhibition of receptor binding; also recorded: marked, and similar effectiveness | blocks this phenotypic transition, and reduces greatly the expulsion of CCN2 and synthesis of new CCN2 | significant CCN2 inhibitory activity; also recorded: able to block the redistribution and new synthesis of CCN2 in a dose-dependent manner | blocks this phenotypic transition, the expulsion of CCN2 and new synthesis of CCN2 | the same or similar effect | approximately 50% | All of the peptides tested except CCNp 37-12 | – | – | – | – | – | – | – | – | – | – | –
CC[C@H](C)[C@H](NC(=O)CNC(=O)[C@@H](NC(=O)[C@H](CCC(N)=O)NC(=O)[C@H](CC(N)=O)NC(=O)[C@H](CC(N)=O)NC(=O)[C@@H]1CCCN1C(=O)[C@H](CC(=O)O)NC(=O)[C@H](C)NC(=O)[C@H](CO)NC(=O)[C@H](CCCNC(=N)N)NC(=O)[C@H](CC(=O)O)NC(=O)[C@@H](N)CO)[C@@H](C)O)C(=O)N[C@@H](CO)C(=O)O [CCNp38] (H-SDRSADPNNQTGIS-OH) | marked, and similar effectiveness | – | blocks this phenotypic transition, the expulsion of CCN2, and new synthesis of CCN2; also recorded: significant CCN2 inhibitory activity; also recorded: able to block the redistribution and new synthesis of CCN2 in a dose-dependent manner | little effect | – | ~70% | – | 50 | blockade of the phenotypic transition, the expulsion of some of the premade collagen and new synthesis of collagen | reduces or blocks this pathology; also recorded: reduces or blocks this impairment | greatly blocks this pathology; also recorded: greatly blocks this renal damage | greatly block this pathology and treats the disease; also recorded: greatly blocks this pathology | greatly reduces or blocks the increase | greatly reduces or blocks the increase | slightly reduces this increase | dose-dependently reduced the increase; also recorded: greatly reduces or blocks the increase in a dose-dependent manner | dose-dependently reduced, or blocked the increase in collagen expression; also recorded: dose-dependently blocked the increase in collagen | greatly reduces, and at the high dose blocks the increase
